Source: US20050220788A1
No constants are given. Whether binding was seen depends on the method and setting. Some results given as binding are weak or reduced against the parent protein; the word gives no strength. For part of these data: Where a sequence is shown, tags or fusion partners need not be part of it.

Chains of the proteins cited; added tags and fusions are not shown. Lines headed by an entry give the natural chain unless they say otherwise; changes in a name come on top.
UniProt P00738: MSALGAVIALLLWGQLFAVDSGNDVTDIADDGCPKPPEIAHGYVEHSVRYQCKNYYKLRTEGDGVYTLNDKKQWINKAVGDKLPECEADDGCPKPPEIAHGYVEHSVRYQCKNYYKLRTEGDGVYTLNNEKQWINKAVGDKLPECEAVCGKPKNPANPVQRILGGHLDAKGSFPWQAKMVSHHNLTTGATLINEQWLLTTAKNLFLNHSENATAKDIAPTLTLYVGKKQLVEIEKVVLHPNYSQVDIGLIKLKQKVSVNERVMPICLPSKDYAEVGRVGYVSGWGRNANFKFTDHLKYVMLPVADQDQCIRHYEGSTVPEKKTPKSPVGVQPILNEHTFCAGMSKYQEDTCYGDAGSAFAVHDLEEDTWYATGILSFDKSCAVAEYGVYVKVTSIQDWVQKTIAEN
UniProt P69905: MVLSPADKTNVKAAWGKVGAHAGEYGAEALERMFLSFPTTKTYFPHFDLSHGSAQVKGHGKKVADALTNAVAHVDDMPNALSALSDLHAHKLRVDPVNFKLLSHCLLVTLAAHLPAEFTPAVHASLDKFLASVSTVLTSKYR

Tests used:
[1] = biological target: T1, GST-D2 (GST fusion of the LPXTGp5 D2 domain) (Staphylococcus aureus) (UniProt Q2FG07); experiment: ELISA, D2 domain protein coated, ligands added in increasing amounts, anti-haptoglobin or anti-haemoglobin mAb; same result in the reverse format (data not shown)
T1 sequence: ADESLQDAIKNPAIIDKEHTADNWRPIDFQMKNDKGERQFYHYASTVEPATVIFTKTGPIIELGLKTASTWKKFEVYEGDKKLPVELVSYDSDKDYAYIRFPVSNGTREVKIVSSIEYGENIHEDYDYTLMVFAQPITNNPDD

[2] = biological target: T2, GST-D1 (GST fusion of the LPXTGp5 D1 domain) (Staphylococcus aureus) (UniProt Q2FG07); experiment: ELISA, D1 domain protein coated, ligands added in increasing amounts, anti-haptoglobin or anti-haemoglobin mAb; same result in the reverse format (data not shown)
T2 sequence: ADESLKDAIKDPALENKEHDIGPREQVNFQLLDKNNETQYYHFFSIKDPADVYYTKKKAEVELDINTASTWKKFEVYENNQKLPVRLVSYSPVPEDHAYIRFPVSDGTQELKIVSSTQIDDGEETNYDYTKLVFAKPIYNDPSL

[3] = biological target: recombinant LPXTGp5 (StrepII-tagged, full-length) (Staphylococcus aureus COL) (UniProt Q2FG07); experiment: ELISA, recombinant HarA coated, anti-haptoglobin mAb detection
[4] = biological target: recombinant LPXTGp5 (StrepII-tagged, full-length) (Staphylococcus aureus COL) (UniProt Q2FG07); experiment: ELISA, rHarA coated, ligands added in increasing amounts, anti-haptoglobin mAb detection
[5] = biological target: T2, GST-D1 (GST fusion of the LPXTGp5 D1 domain) (Staphylococcus aureus); experiment: ELISA, D1 domain protein coated, haemoglobin added, anti-haemoglobin mAb detection
[6] = biological target: T1, GST-D2 (GST fusion of the LPXTGp5 D2 domain) (Staphylococcus aureus); experiment: ELISA, D2 domain protein coated, haemoglobin added, anti-haemoglobin mAb detection

Measured: binding

haptoglobin-haemoglobin complexes (from UniProt P00738 19-406; P00738 19-406; P69905 2-142; P68871 2-147)
binds: [1] | [2] | [3] | [4]

haemoglobin (Sigma) (from UniProt P69905 2-142; P68871 2-147) (ligand)
binds: [5] | [6]
